Results reported in article PMC6695400, “Diversity of oligomerization in Drosophila semaphorins suggests a mechanism of functional fine-tuning” (Nature Communications, 2019).
These are yes or no findings as the source states them, for the method shown. For part of these data: Binding seen in cells or lysates may run through a third protein. Some binding calls cover weakened binding; strength is not graded here. For part of these data: Where a sequence is shown, tags or fusion partners need not be part of it. Each block holds one binder with its values, some of them ahead of it.

Assays:
[1] = target: Sema2a_(full) with C-terminal TwinStrep tag (Drosophila melanogaster) (UniProt Q24323); test: pull-down; HEK293T co-transfected with a His6-tagged and a TwinStrep-tagged semaphorin; conditioned medium 5 days post transfection; two-step affinity chromatography (HisTrap, then StrepTactin); western blot and SDS-PAGE of flow-through and eluate
[2] = target: T1, Drosophila melanogaster PlexA1–4-mVenus (Drosophila melanogaster, UniProt Q9V491 28-730); test: MST; plexin-mVenus kept constant, unlabelled semaphorin titrated (1:1 dilution series); 25 °C; 15 mM HEPES pH 7.4, 150 mM NaCl, 2 mM CaCl2, 0.005% Tween-20; 1 h incubation at room temperature; apparent Kd; both purified
T1 construct: Plexin A, Drosophila melanogaster, domains 1-4 of the ectodomain, residues 28Q-730T; source: HEK293T, transient transfection, purified (HisTrap, SEC); not shown: mVenus, C-terminal, kept
T1 sequence (looked up): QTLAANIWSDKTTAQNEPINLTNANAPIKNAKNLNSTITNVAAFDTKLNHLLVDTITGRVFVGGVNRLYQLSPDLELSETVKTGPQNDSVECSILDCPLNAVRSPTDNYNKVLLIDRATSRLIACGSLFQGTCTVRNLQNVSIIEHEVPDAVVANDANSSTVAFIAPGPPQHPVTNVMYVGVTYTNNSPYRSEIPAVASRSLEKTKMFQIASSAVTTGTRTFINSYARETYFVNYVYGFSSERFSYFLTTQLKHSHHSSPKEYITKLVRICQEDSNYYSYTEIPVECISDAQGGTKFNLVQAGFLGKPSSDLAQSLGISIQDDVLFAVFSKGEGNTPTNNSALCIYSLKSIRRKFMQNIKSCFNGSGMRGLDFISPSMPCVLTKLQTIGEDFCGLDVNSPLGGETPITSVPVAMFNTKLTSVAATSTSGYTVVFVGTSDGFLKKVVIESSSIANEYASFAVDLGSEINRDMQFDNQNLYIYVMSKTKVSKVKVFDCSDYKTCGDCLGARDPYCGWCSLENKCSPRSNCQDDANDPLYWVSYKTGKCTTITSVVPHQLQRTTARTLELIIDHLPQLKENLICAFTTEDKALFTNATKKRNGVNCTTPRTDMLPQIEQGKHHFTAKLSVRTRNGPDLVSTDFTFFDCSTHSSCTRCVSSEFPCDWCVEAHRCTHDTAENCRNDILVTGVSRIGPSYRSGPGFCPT

[3] = target: Drosophila melanogaster Sema1b1–2 (sema and PSI domains) (Drosophila melanogaster) (UniProt Q7KK54); test: crystal structure; sitting-drop vapour diffusion at 20 °C; data at 100 K; both purified
[4] = target: T2, Drosophila melanogaster PlexB1–4-mVenus (Drosophila melanogaster) (UniProt Q9V4A7); test: MST; plexin-mVenus kept constant, unlabelled semaphorin titrated (1:1 dilution series); 25 °C; 15 mM HEPES pH 7.4, 150 mM NaCl, 2 mM CaCl2, 0.005% Tween-20; 1 h incubation at room temperature; apparent Kd; both purified
T2 sequence: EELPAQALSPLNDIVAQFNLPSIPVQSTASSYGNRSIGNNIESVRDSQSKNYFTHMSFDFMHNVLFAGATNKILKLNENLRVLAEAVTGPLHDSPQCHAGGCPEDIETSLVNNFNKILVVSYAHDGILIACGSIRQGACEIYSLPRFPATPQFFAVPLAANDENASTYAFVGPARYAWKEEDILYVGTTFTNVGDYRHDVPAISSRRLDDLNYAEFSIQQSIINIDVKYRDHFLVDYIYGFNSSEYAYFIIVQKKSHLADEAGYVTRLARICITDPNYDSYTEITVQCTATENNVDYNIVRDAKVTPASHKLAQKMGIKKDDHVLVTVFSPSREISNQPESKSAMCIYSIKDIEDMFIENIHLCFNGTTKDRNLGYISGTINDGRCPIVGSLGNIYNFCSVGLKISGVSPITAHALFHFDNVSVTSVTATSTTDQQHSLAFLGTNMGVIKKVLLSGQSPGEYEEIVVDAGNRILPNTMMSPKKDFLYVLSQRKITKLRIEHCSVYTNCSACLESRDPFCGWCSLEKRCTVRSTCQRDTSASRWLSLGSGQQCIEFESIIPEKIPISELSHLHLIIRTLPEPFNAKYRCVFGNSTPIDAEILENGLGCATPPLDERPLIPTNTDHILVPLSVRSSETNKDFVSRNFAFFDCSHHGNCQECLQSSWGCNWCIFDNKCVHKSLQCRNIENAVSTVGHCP

[5] = target: Drosophila melanogaster semaphorin-1b full-length ectodomain (Sema1b_(ecto)) (Drosophila melanogaster) (UniProt Q7KK54); test: SEC-MALS; Superdex 200 Increase 10/300, 15 mM HEPES pH 7.4, 150 mM NaCl; with SDS-PAGE under reducing and non-reducing conditions; initial concentrations up to 2 mg/ml; monomer to dimer; both purified
[6] = target: T3, mouse Sema3A (residues 26–730, furin sites mutated) with C-terminal 3C-Avi-His6 tag (mouse) (UniProt O08665); test: pull-down; HEK293T co-transfected with a His6-tagged and a TwinStrep-tagged semaphorin; conditioned medium 5 days post transfection; two-step affinity chromatography (HisTrap, then StrepTactin); western blot and SDS-PAGE of flow-through and eluate
T3 sequence: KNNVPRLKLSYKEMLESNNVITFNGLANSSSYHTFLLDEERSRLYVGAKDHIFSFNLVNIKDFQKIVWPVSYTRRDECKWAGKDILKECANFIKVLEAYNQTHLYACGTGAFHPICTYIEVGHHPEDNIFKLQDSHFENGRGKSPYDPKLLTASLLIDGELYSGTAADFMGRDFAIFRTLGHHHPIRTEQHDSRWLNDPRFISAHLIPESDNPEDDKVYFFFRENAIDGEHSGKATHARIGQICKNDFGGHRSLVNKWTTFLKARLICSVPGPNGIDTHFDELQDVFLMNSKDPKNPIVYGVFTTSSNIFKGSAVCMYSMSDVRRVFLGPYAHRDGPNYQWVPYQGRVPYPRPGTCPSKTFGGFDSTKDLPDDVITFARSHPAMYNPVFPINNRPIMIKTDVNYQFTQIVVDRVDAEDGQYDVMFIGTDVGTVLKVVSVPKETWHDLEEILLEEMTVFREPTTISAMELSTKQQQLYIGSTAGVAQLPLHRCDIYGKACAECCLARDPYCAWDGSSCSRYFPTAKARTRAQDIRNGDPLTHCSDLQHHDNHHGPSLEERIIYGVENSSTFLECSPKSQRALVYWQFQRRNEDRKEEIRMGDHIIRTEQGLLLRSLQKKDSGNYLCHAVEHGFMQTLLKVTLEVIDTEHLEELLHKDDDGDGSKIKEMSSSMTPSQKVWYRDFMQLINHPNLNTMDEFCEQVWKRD

binding [1]: binds
B1: Sema2a_(full) with C-terminal TwinStrep tag (ligand, UniProt Q24323 26-724)
chain: DYENTWNFYYERPCCTGNDQGNNNYGKHGADHVREFNCGKLYYRTFHMNEDRDTLYVGAMDRVFRVNLQNISSSNCNRDVINLEPTRDDVVSCVSKGKSQIFDCKNHVRVIQSMDQGDRLYVCGTNAHNPKDYVIYANLTHLPRSEYVIGVGLGIAKCPYDPLDNSTAIYVENGNPGGLPGLYSGTNAEFTKADTVIFRTDLYNTSAKRLEYKFKRTLKYDSKWLDKPNFVGSFDIGEYVYFFFRETAVEYINCGKAVYSRIARVCKKDVGGKNLLAHNWATYLKARLNCSISGEFPFYFNEIQSVYQLPSDKSRFFATFTTSTNGLIGSAVCSFHINEIQAAFNGKFKEQSSSNSAWLPVLNSRVPEPRPGTCVNDTSNLPDTVLNFIRSHPLMDKAVNHEHNNPVYYKRDLVFTKLVVDKIRIDILNQEYIVYYVGTNLGRIYKIVQYYRNGESLSKLLDIFEVAPNEAIQVMEISQTRKSLYIGTDHRIKQIDLAMCNRRYDNCFRCVRDPYCGWDKEANTCRPYELDLLQDVANETSDICDSSVLKKKIVVTYGQSVHLGCFVKIPEVLKNEQVTWYHHSKDKGRYEIRYSPTKYIETTERGLVVVSVNEADGGRYDCHLGGSLLCSYNITVDAHRCTPPNKSNDYQKIYSDWCHEFEKYKTAMKSWEKKQAQCSTRQNFSSNQHPNEIFRKPNV

binding [2]: no binding
B2: Drosophila melanogaster full-length secreted semaphorin-2a (Sema2a_(full)) (ligand, UniProt Q24323 26-724, looked up)
chain: B1 chain
notes: Semaphorin-2a, Drosophila melanogaster, residues 26D-724V; Disulfide-linked dimer in solution; source: HEK293T (37 °C), transient transfection, purified (HisTrap, SEC)

binding [3]: no binding
B3: Drosophila melanogaster Sema1b1–2 (sema and PSI domains) (domain or fragment, UniProt Q7KK54 37-602)
chain: DVKPDLQTKQDKVLAHFIGNSTDYFKILDHNDEFVLVGAKDVIYNVSLNGLKEIARLEWHSTDADRELCALKGKHEWDCHNYLRVYALRPNGEVLLCGTNSYKPRCRHYTPVEVSSEEAGSAGHAHAMRYEVSRDVEAQGLCPYSPAHNSTYAFADGHLYSATVADFSGGDPLIYRENLRTEQYDLKQLNQPDFVGAIERNGYVLFFFRELSMEVMNFGKAVYSRVARVCKNDRGGPYSHGKSWTSFLKARLNCSVPGEFPFYFDEIQAISPIVESGSKSLIYAVFTTSVNAIPGSAVCAFNVDDILAAFDGEFKSQKDSQSHWLPVEREQVPKPRPGQCVEDSRTLTSIAVNFIKNHPLMEEAVPAVHGRPLLTKVNLHHRLTAIAVHPQVKSLSGAYYDVIYSGTDDGKVTKFINILSTHPNSTVDRLKTVVISEMQVLPLGTPIRELVISTSKNSLVVVSDGSLVSVPLHHCSHIVDCLGCLSLQDPICAWDLQTHECKNLATSQHKFGTKTYLQSLNSTKKAAALLCPHIPRDAPGAETVSFVTMAPPPTEEQKLLYSNVGS

Continued, binder first:

B4: Drosophila melanogaster semaphorin-1b full-length ectodomain (Sema1b_(ecto)) (domain or fragment, UniProt Q7KK54 37-659, looked up)
chain: DVKPDLQTKQDKVLAHFIGNSTDYFKILDHNDEFVLVGAKDVIYNVSLNGLKEIARLEWHSTDADRELCALKGKHEWDCHNYLRVYALRPNGEVLLCGTNSYKPRCRHYTPVEVSSEEAGSAGHAHAMRYEVSRDVEAQGLCPYSPAHNSTYAFADGHLYSATVADFSGGDPLIYRENLRTEQYDLKQLNQPDFVGAIERNGYVLFFFRELSMEVMNFGKAVYSRVARVCKNDRGGPYSHGKSWTSFLKARLNCSVPGEFPFYFDEIQAISPIVESGSKSLIYAVFTTSVNAIPGSAVCAFNVDDILAAFDGEFKSQKDSQSHWLPVEREQVPKPRPGQCVEDSRTLTSIAVNFIKNHPLMEEAVPAVHGRPLLTKVNLHHRLTAIAVHPQVKSLSGAYYDVIYSGTDDGKVTKFINILSTHPNSTVDRLKTVVISEMQVLPLGTPIRELVISTSKNSLVVVSDGSLVSVPLHHCSHIVDCLGCLSLQDPICAWDLQTHECKNLATSQHKFGTKTYLQSLNSTKKAAALLCPHIPRDAPGAETVSFVTMAPPPTEEQKLLYSNVGSSQGNQPSLEQQPTGGDDFGLNKITLTSMDPDDIMPNLNDPQKSTASVDEIKYASTPS
notes: Semaphorin-1b, Drosophila melanogaster, ectodomain, residues 37D-659S; Monomer in solution; source: HEK293T (30 °C), transient transfection, purified (HisTrap, SEC)
binding [4]: no binding | binding [5]: no binding (tested: 2 mg/ml)

B5: mouse Sema3C (residues 22–711, furin sites mutated) with C-terminal TwinStrep tag (ligand, UniProt Q62181 22-711, looked up)
chain: SSQPQARVYLTFDELRETKTSEYFSLSHQQLDYRILLMDEDQDRIYVGSKDHILSLNINNISQEPLSVFWPASTIKVEECKMAGKDPTHGCGNFVRVIQTFNRTHLYVCGSGAFSPVCTYLNRGRRSEDQVFMIDSKCESGKGRCSFNPNVNTVSVMINEELFSGMYIDFMGTDAAIFRSLTKRNAVRTDQHNSKWLSEPMFVDAHVIPDGTDPNDAKVYFFFKERLTDNNRSTKQIHSMIARICPNDTGGQRSLVNKWTTFLKARLVCSVTDEDGPETHFDELEDVFLLETDNPRTTLVYGIFTTSSSVFKGSAVCVYHLSDIQTVFNGPFAHKEGPNHQLISYQGRIPYPRPGTCPGGAFTPNMRTTKDFPDDVVTFIRNHPLMYNSIYPIHRRPLIVRIGTDYKYTKIAVDRVNAADGRYHVLFLGTDRGTVQKVVVLPTNSSASGELILEELEVFKNHVPITTMKISSKKQQLYVSSNEGVSQVSLHRCHIYGTACADCCLARDPYCAWDGHSCSRFYPTGKARSRAQDVRHGNPLTQCRGFNLKAYRNAAEIVQYGVRNNSTFLECAPKSPQASIKWLLQKDKDRRKEVKLNERIIATSQGLLIRSVQDSDQGLYHCIATENSFKQTIAKINFKVLDSEMVAVVTDKWSPWTWAGSVRALPFHPKDILGAFSHSEMQLINQYCKD
notes: Semaphorin-3C, mouse, residues 22-711, furin cleavage sites mutated (R548, 552A); also called Sema3C-TwinStrep; source: HEK293T, transient co-transfection, secreted into conditioned medium; not shown: TwinStrep, C-terminal, kept
binding [6]: binds
